Assay results published in PubChem BioAssay AID1347076 (National Center for Advancing Translational Sciences (NCATS), 2019).
In all, about 400,000 compounds went through this assay and about 13,000 (3.2%) were called active. Inconclusive means that the source gave no clear call. Such entries were picked first, then a sample of the others. Calls follow the shape of the dose curve; as a rule, active = well fitted cell-killing curve with a large enough effect; inconclusive = small, poorly fitted or top-dose-only effect, or effect the other way; inactive = flat fitted curve, though single readings scatter. Where the call is inconclusive, the potency comes from a doubtful curve fit.

Assay: qHTS assay for MDR1-selective chemotherapeutics: Primary screen using the drug-selected MDR subline cells KB-V1; also: nearly all actives have a fitted effect of over 60% in size
Settings: KB-V1 MDR cells viability, CellTiter-Glo, 72 h; activity change, negative = cytotoxicity: at 46.1 µM (top of the series)
How it was run: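 Compound-treated KB-V1 multidrug-resistant cells, 72 h, 37 degrees C; viability by CellTiter-Glo. Fitted qHTS curves give the values.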
% is scaled to controls: 0 for no effect and ±100 for the full control effect; potency is read from the fitted curve at half-maximal effect.

Row | Compound | Potency | activity change, negative = cytotoxicity
1 | Cc1nn(C(=O)c2ccccc2)c(C)c1S(=O)(=O)N1CCCCCC1 | inconclusive: 9.2 µM [rising, partial curve] | 
2 | Cn1c(SCc2ccccc2Br)nc2ccccc2c1=O | inconclusive: 20.6 µM [cytotoxic, single point] | 
3 | O=C(OCc1cccc(C(F)(F)F)c1)c1ccc(-c2nnn(Cc3ccc(F)cc3)n2)cc1 | inconclusive: 32.6 µM [cytotoxic, single point] | 
4 | O=C(Nc1ccc(Cl)cn1)c1cccc(S(=O)(=O)N2CCOCC2)c1 | active: 20.6 µM | 
5 | O=[N+]([O-])c1cccc(N/N=C/c2ccc(N3CCOCC3)cc2)c1 | inconclusive: 23.1 µM [cytotoxic, single point] | 
6 | Cc1cc(C)cc(NC(=S)N(C)C)c1 |  | inactive: 7.76%
7 | CC(C)(C)c1ccc(OCCn2c(CCNC(=O)C3CCCCC3)nc3ccccc32)cc1 | inconclusive: 32.6 µM [cytotoxic, single point] | 
8 | CCOc1ccc(C(=O)OCc2cc(=O)n3cc(C)sc3n2)cc1 |  | inactive: 0%
9 | COc1cccc(CNc2ncc(Br)cc2Br)c1O | inconclusive: 23.1 µM [cytotoxic, single point] | 
10 | O=C(CCC1CCCC1)N1CCC(N2CCCCCC2)CC1 | inconclusive: 7.31 µM [cytotoxic, partial curve, poor fit] | 
11 | O=C(O)CSCCc1ccccn1 | inconclusive: 13 µM [rising, partial curve] | 
12 | CCn1c(SCC(=O)Nc2ccc(OC)c(OC)c2)nnc1-c1cccs1 | inconclusive: 18.4 µM [cytotoxic, partial curve] | 
13 | COc1ccc(OCC(=O)Nc2cc(-c3nn(C)c(=O)c4ccccc34)ccc2OC)cc1 | inconclusive: 0.731 µM [cytotoxic, full curve, poor fit] | 
14 | Cc1ccc(C)c(OCc2cc(C(=O)N3CCc4sccc4C3)no2)c1 | inconclusive: 16.4 µM [cytotoxic, single point] | 
15 | COc1cccc(N2CCN(Cc3nc4scc(-c5ccccc5)c4c(=O)[nH]3)CC2)c1 | active: 9.2 µM | 
16 | CC(C)N1CCc2nc(SCC(=O)Nc3cccc(F)c3)[nH]c(=O)c2C1 | inconclusive: 3.66 µM [rising, full curve] | 
17 | COc1ccc(-c2nc3scc(CCNC(=O)c4cc(OC)cc(OC)c4)n3n2)cc1 |  | inactive: -18.4%
18 | CCNC(=S)/N=C(/Nc1ccccc1)Nc1nc(C)cc(C)n1 | inconclusive: 16.4 µM [cytotoxic, partial curve] | 
19 | CCOC(=O)C1CCCN(S(=O)(=O)c2ccc3[nH]c(=O)oc3c2)C1 (stereo not given) |  | inactive: -1%
20 | COc1ccc(NC2CCCN(Cc3cccc4cnccc34)C2)cc1OC (stereo not given) | inconclusive: 2.31 µM [cytotoxic, full curve] | 

2 of the compounds above, tab-delimited:
Row	Compound	Potency	activity change, negative = cytotoxicity
13	COc1ccc(OCC(=O)Nc2cc(-c3nn(C)c(=O)c4ccccc34)ccc2OC)cc1	inconclusive: 0.731 µM [cytotoxic, full curve, poor fit]	
14	Cc1ccc(C)c(OCc2cc(C(=O)N3CCc4sccc4C3)no2)c1	inconclusive: 16.4 µM [cytotoxic, single point]	
